The nature of the data set: ternary complex formation with histidine model 1-methylimidazole by 1H NMR. The following applies: PBS’ pH 7.4. The text has this:
Our other aim was to investigate the binding kinetics of RuCymBP over a longer period of time, since MeIm has no such stability problems compared to HSA in a 2 week follow-up.
Slow exchange of the aqua and chlorido complexes on the NMR time scale is not unique for RuCym complexes; formerly we have observed the same phenomenon with 2-picolinate and cyclometalated 4-phenylthiazole complexes. , The ternary complex formation with MeIm is rather slow; at a 1:1 ratio, the emergence of a new peak can be observed after 6 days, and only ca. 10% ternary complex forms after 14 days. By increasing the MeIm excess to 10-fold, the ternary complex becomes detectable after 8 h and about 2/3 of the metal complex transforms to the ternary species after 14 days. ^1H NMR studies on the RhCp*BP – MeIm system indicated a more rapid and almost quantitative interaction (Figure S21). The formation of the ternary complex proceeds within 30 min with 87% conversion. The quantity of the ternary complex formed with MeIm agrees very well with previously reported data on RhCp*BPY–MeIm (67%), although the complex formation was reported to be slower for the latter. The coordination of the present RhCp* complexes to His imidazole groups in albumin is therefore highly probable; however, the specific binding sites and the possible involvement of other side chains remain to be elucidated in future studies.
A Bruker AVANCE III HD Ascend 500 Plus instrument was used for NMR studies. For the characterization of the complexes both the ^1H and ^13C NMR spectra were recorded in CD3OD (10 mM, t = 25 °C). The ^13C NMR spectra were obtained with the attached proton test distinguishing CH and CH3 as positive peaks and quaternary carbons and CH2 as negative peaks. ^1H NMR spectroscopic measurements of the complexes with MeIm were carried out employing a WATERGATE water suppression pulse scheme in the presence of 10% (v/v) D2O/90% (v/v) H2O. DSS internal standard was added to the samples to obtain reference peaks.
Figure S 19. Fluorescence emission spectra of HSA in the presence of RhCp*BP over 5 h { cRhCp*BP = […]

Consider “[Rh(III)(η^5-C5Me5)(bathophenanthroline)Cl]Cl [RhCp*BP]”, for which the “conversion to ternary complex with MeIm” value (within 30 min) is listed as 87%.
Turning to `Cc1ccc(C(C)C)cc1.[Cl-].[Cl-].[Ru+2].c1ccc(-c2ccnc3c2ccc2c(-c4ccccc4)ccnc23)cc1` [RuCymBP, [Ru(II)(η^6-p-cymene)(bathophenanthroline)Cl]Cl], the “fraction of metal complex transformed to the ternary species” value (10-fold MeIm excess, after 14 days) was “about 2/3”. For the same compound, the “ternary complex formed with MeIm” value (complex:MeIm 1:1, after 14 days, 25 °C) is “ca. 10%”.

Values taken from paper PMC12308784, “Organometallic Half-Sandwich Complexes of 1,10-Phenanthroline Derivatives with Improved Solubility, Albumin-Binding, and Nanoformulation Potential Targeting Drug Resistance in Cancer” (Inorganic Chemistry, 2025).
